Percent effect of library compounds

Chains of the proteins cited; added tags and fusions are not shown. Residues count along the entry.
UniProt P9WPC5, whole entry: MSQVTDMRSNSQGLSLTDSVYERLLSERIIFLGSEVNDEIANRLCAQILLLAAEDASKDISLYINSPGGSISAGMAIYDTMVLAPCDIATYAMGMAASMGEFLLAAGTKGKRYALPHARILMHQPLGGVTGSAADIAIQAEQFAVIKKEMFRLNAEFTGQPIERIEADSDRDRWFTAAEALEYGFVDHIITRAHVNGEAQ
UniProt P9WPC3, whole entry partner: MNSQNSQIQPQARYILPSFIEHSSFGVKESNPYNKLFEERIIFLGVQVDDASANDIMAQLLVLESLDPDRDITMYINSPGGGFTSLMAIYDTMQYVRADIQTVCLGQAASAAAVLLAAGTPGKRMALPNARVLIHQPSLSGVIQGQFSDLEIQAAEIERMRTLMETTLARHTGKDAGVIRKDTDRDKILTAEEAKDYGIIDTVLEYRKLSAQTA
UniProt P9WNZ1, whole entry: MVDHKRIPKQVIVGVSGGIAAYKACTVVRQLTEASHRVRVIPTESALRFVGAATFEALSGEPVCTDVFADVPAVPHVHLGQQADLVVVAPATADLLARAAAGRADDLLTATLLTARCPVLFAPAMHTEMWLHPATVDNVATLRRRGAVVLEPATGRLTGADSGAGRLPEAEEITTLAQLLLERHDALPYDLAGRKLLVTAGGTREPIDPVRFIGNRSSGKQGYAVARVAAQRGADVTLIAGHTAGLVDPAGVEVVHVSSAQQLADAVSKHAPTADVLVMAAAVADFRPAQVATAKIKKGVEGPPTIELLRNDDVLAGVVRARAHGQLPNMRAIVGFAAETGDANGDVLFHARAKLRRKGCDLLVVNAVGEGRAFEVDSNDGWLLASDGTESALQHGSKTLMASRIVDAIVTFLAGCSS
UniProt Q8IDJ8, 1-583: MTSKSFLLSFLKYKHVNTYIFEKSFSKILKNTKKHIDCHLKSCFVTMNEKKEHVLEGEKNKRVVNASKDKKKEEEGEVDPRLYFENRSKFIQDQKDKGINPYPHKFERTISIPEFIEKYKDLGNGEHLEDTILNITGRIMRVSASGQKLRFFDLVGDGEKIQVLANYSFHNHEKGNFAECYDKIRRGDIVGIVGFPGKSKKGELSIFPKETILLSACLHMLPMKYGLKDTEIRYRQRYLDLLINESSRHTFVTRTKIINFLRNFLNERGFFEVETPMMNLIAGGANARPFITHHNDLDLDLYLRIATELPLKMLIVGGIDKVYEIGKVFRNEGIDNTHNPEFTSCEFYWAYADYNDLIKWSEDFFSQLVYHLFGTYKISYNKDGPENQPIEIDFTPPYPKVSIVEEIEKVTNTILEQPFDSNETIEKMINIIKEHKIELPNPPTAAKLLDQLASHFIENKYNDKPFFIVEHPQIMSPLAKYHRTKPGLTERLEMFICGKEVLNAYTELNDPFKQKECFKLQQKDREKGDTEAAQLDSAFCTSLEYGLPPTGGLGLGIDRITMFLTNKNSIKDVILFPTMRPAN

Each number is a percent effect as filed. The controls that fix the scale are not given in the record; negative values are as filed. Compounds were drawn at random from those tested, without regard to their results. Two or more numbers in one place are separate tests of the same structure; such repeats can differ widely.

ClpP1P2: 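Protease assay of ClpP1P2, read by the AMC dye that it sets free. Target: ClpP1P2, Mycobacterium tuberculosis (UniProt P9WPC5 and UniProt P9WPC3). Tested at 50 µM. Direction is inferred from only a few compounds that gave an IC50; most scored high, so higher reads as stronger inhibition. Most other retested compounds had strongly negative values. Of about 69,000 compounds tested this way, about 10 (0.015%) reached 50% or more in at least one test.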
CoaBC: 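Coenzyme A biosynthesis protein CoaBC, Mycobacterium tuberculosis (UniProt P9WNZ1). Enzyme assay of CoaBC with a phosphate dye (Biomol Green) read at 650 nm. Concentration: 30 µM. Direction is inferred from only a few compounds that gave an IC50; most scored high, so higher reads as stronger inhibition. Most strong results did not repeat in a second test. Size under these conditions: about 67,000 compounds, about 40 of them at 50% or above in at least one test.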
PfKRS1: 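Lysine-tRNA ligase, Plasmodium falciparum 3D7 (UniProt Q8IDJ8). Enzyme assay of the cytosolic lysyl-tRNA synthetase in 384-well plates, read by luminescence. Compounds at 30 µM. Higher reads as stronger inhibition, judged from the few compounds that gave an IC50. About 69,000 compounds were tested under these conditions; 0.071% (about 49) showed 50% or more at least once.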

Result for Cn1cc(CN2CCn3cc(CNC(=O)CC4CC4)nc3C2)cn1 was ClpP1P2: -3.472%; CoaBC: 3.299%; PfKRS1: -1.3%.
Result for O=C(c1ncccn1)N1CC[C@H]2OCC[C@@]2(COc2ccccn2)C1 was ClpP1P2: -6.336%; CoaBC: 8.879%; PfKRS1: 4.083%.
Result for CCCN1CCC(Cc2noc(-c3cc4cccnc4nc3C)n2)CC1 was ClpP1P2: -1.351%; CoaBC: -0.3367%; PfKRS1: -0.1173%.
Result for COc1ccccc1OC1CN(C(=O)Cc2c(C)nc(C)[nH]c2=O)C1 was ClpP1P2: -5.497%; CoaBC: -5.115%; PfKRS1: 5.607%.
Result for CN(Cc1cnn(C)c1)S(=O)(=O)N1CCCCCC1 was ClpP1P2: 9.335%; CoaBC: 15.4%; PfKRS1: 1.417%.
Result for CC(C)(C)N1CC(C(=O)NCc2cn3cccnc3n2)CC1=O (stereo not shown) was ClpP1P2: -41.59%; CoaBC: -0.8696%; PfKRS1: 3.406%.
Result for O=C([C@H]1C[C@H]2OCC[C@H]2N(CC2CC2)C1)N1CCCCO1 was ClpP1P2: 0.8455%; CoaBC: 5%; PfKRS1: 4.523%.
Result for CC(C)(C)CN[C@@H]1CO[C@H](CNC(=O)C2CCCC2)[C@H]1O was ClpP1P2: 6.893%; CoaBC: 8.609%; PfKRS1: 2.421%.
Result for Cc1cc(C)nc(NC(=O)C(C)Oc2ccc3c(c2)OCO3)n1 (stereo not shown) was ClpP1P2: 14.3%; CoaBC: 10.91%; PfKRS1: -0.2408%.
Result for O=C(CCOCc1ccccc1)NS(=O)(=O)N1CCOc2ccccc21 was ClpP1P2: 0.8648%; CoaBC: 13.54%; PfKRS1: 4.405%.
Result for COc1ccc(-c2cc(C3CCCNC3)ccn2)cc1 (stereo not shown) was ClpP1P2: -33.14%; CoaBC: 1.166%; PfKRS1: 2.136%.
Result for CN(C)c1cc(CNC(=O)Nc2ccc(S(C)(=O)=O)nc2)ccn1 was ClpP1P2: 9.365%; CoaBC: -1.554%; PfKRS1: 3.493%.
Result for COc1cc2cc(C(=O)NC(C)C(=O)O)n(C)c2c(OC)c1OC (stereo not shown) was ClpP1P2: -5.976%; CoaBC: 1.869%; PfKRS1: -3.813%.
Result for CCN(CC)C(=O)c1c(Cl)cnn1CC was ClpP1P2: 1.881%; CoaBC: 1.595%; PfKRS1: 1.635%.
Result for CCn1nc(C)c(-c2cncn2Cc2ccccc2CN(C)C)c1C was ClpP1P2: -2.122%; CoaBC: 36.2% and 6.701%; PfKRS1: 0.9155%.
Result for COC[C@H]1CC[C@H]2[C@H](CCN2S(=O)(=O)c2ccccc2)O1 was ClpP1P2: -7.576%; CoaBC: 4.034%; PfKRS1: 4.156%.
Result for CN1CC[C@]2(CN(C(=O)[C@H]3CCCO3)C[C@H]2c2ccccc2)C1=O was ClpP1P2: -4.362%; CoaBC: -0.8333%; PfKRS1: 1.364%.
Result for O=C(NCc1ccc(Cl)s1)NCc1nnc2n1CCCCC2 was ClpP1P2: -8.465%; CoaBC: 3.781%; PfKRS1: 0.9393%.
Result for CCc1ncc2c(n1)CN(Cc1nc(-c3cccs3)no1)CC2 was ClpP1P2: -18.74%; CoaBC: 12.89% and 49.12%; PfKRS1: 2.09%.
Result for CCn1c(N)nc2cc(C(=O)N3CCN(c4ccncc4)CC3)cnc21 was ClpP1P2: -6.58%; CoaBC: -11.82%; PfKRS1: 3.809%.
Result for CC(C)NC1CCc2c(ccc(=O)n2CCN2CCCC2=O)C1 (stereo not shown) was ClpP1P2: -5.227%; CoaBC: 5.417%; PfKRS1: 3.441%.
Result for CCc1noc(C(C)N(C)Cc2cc(Br)ccc2OC)n1 (stereo not shown) was ClpP1P2: 5.715%; CoaBC: 6.436%; PfKRS1: -0.09696%.
Result for CN(C(=O)CN1CCc2nn(C)c(=O)cc2C1)c1nccs1 was ClpP1P2: -17.68%; CoaBC: -1.474%; PfKRS1: 1.694%.
Result for CCn1c(CN(C)C)nnc1C1CCN(Cc2cccc(C#N)c2)CC1 was ClpP1P2: -12.81%; CoaBC: 1.809%; PfKRS1: 0.06128%.
Result for CN(C)CCn1c([C@@H]2CCCO2)cc2cccnc21 was ClpP1P2: -5.054%; CoaBC: 0.4902%; PfKRS1: 5.274%.
Result for COc1ncccc1-c1nc(-c2ccccn2)nn1C1CCN(C)CC1 was ClpP1P2: -10.56%; CoaBC: 1.364%; PfKRS1: 1.146%.
Result for CN(C)S(=O)(=O)c1cccc(NC(=O)Cc2ccon2)c1 was ClpP1P2: 2.872%; CoaBC: -1.463%; PfKRS1: 2.776%.
Result for CCS(=O)(=O)N1CCN(CC(F)(F)F)CC1 was ClpP1P2: -8.472%; CoaBC: 3.137%; PfKRS1: 5.575%.
Result for Cc1n[nH]c(C)c1C1CCCN1C(=O)CNC(=O)C(C)(C)C (stereo not shown) was ClpP1P2: -11.5%; CoaBC: 3.625%; PfKRS1: -0.7534%.
Result for CCc1cc(N2CC(N3CCCCC3C)C2)n2nccc2n1 (stereo not shown) was ClpP1P2: 10.74%; CoaBC: 7.143%; PfKRS1: -1.265%.
Result for CC(c1ccc(S(N)(=O)=O)cc1)N(C)C(=O)c1ccccc1I (stereo not shown) was ClpP1P2: 3.549%; CoaBC: -4.303%; PfKRS1: 0.09358%.
Result for CC(C)N1CC2(CCCN(c3ncc(Cl)cc3F)C2)CCC1=O (stereo not shown) was ClpP1P2: -15.1%; CoaBC: -0.2404%; PfKRS1: 1.235%.
Result for CCCN1C[C@H]2CC[C@@H]1CN(Cc1ccc(-n3cccn3)cc1)C2 was ClpP1P2: 7.65%; PfKRS1: -0.4224%.
Result for Cc1nn(C)c(N2CCOCC2)c1CNCC1CCN(C2CC2)C1 (stereo not shown) was ClpP1P2: 11.52%; CoaBC: -1.951%; PfKRS1: -0.5747%.

For reference, 3 entries once more:

SMILES,ClpP1P2,CoaBC,PfKRS1
CN(C)c1cc(CNC(=O)Nc2ccc(S(C)(=O)=O)nc2)ccn1,9.365,-1.554,3.493
CCn1nc(C)c(-c2cncn2Cc2ccccc2CN(C)C)c1C,-2.122,36.2 and 6.701,0.9155
COc1ccccc1OC1CN(C(=O)Cc2c(C)nc(C)[nH]c2=O)C1,-5.497,-5.115,5.607

The values are deposited in ChEMBL (CHEMBL3988442, “University of Dundee, Small-Polar-MMV Screening Library” (2021)).